Results: PubChem BioAssay AID652054 (National Center for Advancing Translational Sciences (NCATS), 2013)
The whole screen tested about 360,000 compounds, of which about 9,100 (2.5%) were called active. Inconclusive means that the source gave no clear call. Such entries were picked first, then a sample of the others. Cut-off read from the data, not from the text of the source: active = max response below about -50%; inconclusive = no clear call, values can overlap the other calls; inactive = above that.

Protein sequences, listed by entry. Tags and fused reporters are not part of them.
UniProt P35462, whole entry, looked up: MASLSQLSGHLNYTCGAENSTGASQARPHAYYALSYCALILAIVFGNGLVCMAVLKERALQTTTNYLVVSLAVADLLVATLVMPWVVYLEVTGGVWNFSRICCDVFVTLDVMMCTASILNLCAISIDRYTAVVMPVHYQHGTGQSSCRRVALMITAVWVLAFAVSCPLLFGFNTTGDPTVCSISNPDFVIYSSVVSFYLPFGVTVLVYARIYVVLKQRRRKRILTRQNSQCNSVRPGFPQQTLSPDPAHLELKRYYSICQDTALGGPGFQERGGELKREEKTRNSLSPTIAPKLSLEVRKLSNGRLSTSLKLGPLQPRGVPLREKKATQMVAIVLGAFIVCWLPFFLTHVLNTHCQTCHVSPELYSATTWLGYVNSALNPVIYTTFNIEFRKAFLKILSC

Target: D(3) dopamine receptor (Homo sapiens) (UniProt P35462)
Test: qHTS of D3 Dopamine Receptor Antagonist: qHTS
Conditions: D3R cells, DiscoveRx beta-arrestin luminescence, antagonist mode; hits give low values
How it was run: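 Cells expressing the human receptor were seeded at 1500 cells/well, incubated overnight at 37 degrees C in 5% CO2, then exposed to library compounds with dopamine controls for 90 minutes at 37 degrees C before luminescent detection.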
% is set by controls: 0 for no effect and ±100 for the full control effect.

Structure (SMILES) | max response, negative = inhibition
O=C(c1cn(-c2ccccc2)nc1-c1cccs1)N1CCN(c2ccc(F)cc2)CC1 | inactive: 12.3%
O=C(CCCN1C(=O)/C(=C\c2cccs2)SC1=S)Nc1cc([N+](=O)[O-])ccc1O | active: -90.3%
COc1ccc([C@@H]2C[C@H](c3ccccc3)Oc3cc(OC)c(OC)c(OC)c32)cc1 | inactive: 6.45%
CN(C)CCNC(=O)c1ccc(Cl)s1 | inconclusive: -34.2%
CC(C)CN(C(=O)CN1CCN(S(=O)(=O)c2ccccc2)CC1)c1c(N)n(CC(C)C)c(=O)[nH]c1=O | inconclusive: -35.7%
CN(CC(=O)NC1CCN(Cc2ccccc2)CC1)S(=O)(=O)c1ccc(Cl)cc1 | inconclusive: -41.8%
CC(C)CN(C(=O)COC(=O)c1c2c(nc3ccccc13)CCC2)c1c(N)n(Cc2ccccc2)c(=O)[nH]c1=O | inactive: -8.78%
CC(C)(C)OC(=O)n1cc(C(=O)c2ccccc2O)cn1 | inactive: 6.63%
O=C(NCCCN1CCN(c2ccccc2F)CC1)C1CCC(=O)N1C1CCCCC1 (stereo not drawn) | active: -78%
COc1ccc(CN2CCC[C@]3(N[C@H](c4ccc(C(F)(F)F)cc4)[C@@H]4C(=O)N(C)C(=O)[C@@H]43)C2=O)cc1 | inconclusive: -47.3%
COc1ccccc1-c1csc(C(O)c2ccc(F)cc2)n1 (stereo not drawn) | inconclusive: -33%
O=C(NC1CCCC1)C(c1ccsc1)N(C(=O)Cc1cccs1)c1ccc(F)cc1 (stereo not drawn) | inconclusive: -43%
FC(F)(F)c1cccc(OCCOCCn2cncn2)c1 | inconclusive: -35.1%
CCCCN(C)CCC(=O)Nc1ccc(OC)cc1OC | inconclusive: -43.3%
COc1ccccc1-c1nnc(NC(C)=O)s1 | active: -88%
COC[C@H]1CCCN1[C@@H]1CS(=O)(=O)N[C@H]1COCc1ccccc1 | inactive: -8.8%
CCOC(=O)C1=C(COC(=O)CCOc2ccccc2)NC(=O)NC1C (stereo not drawn) | inconclusive: -39.6%
CC1=NOC(=O)/C1=C/c1ccc(O)c(Br)c1 | inconclusive: -36.9%
Cc1sc2ncnc(N3CCC(C(=O)N4CC(C)SC4=Nc4ccc(Cl)cc4)CC3)c2c1C (stereo not drawn) | inactive: 13.9%
Cc1cc(C)nc(NS(=O)(=O)c2ccc(NC(=S)NC(=O)c3cccnc3)cc2)n1 | inconclusive: -33.1%
CCOC(=O)N1CCN(C(=O)c2oc3ccc(S(=O)(=O)N4CCCCC4)cc3c2C)CC1 | inactive: 18.5%
COc1cc2nc(SCC(=O)NCCc3ccccc3)n(Cc3ccco3)c(=O)c2cc1OC | inconclusive: -33%

Structure (SMILES) | max response, negative = inhibition
CC(C)(C)NCc1cc(Cl)ccc1OCc1cccs1 | inactive: 8.78%
COc1ccc(-c2c(C(=O)c3ccccc3)[nH]c(N)c2C(=O)c2ccc(Br)cc2)cc1OC | active: -73.1%
COc1cc(C2C(C#N)=C(N)OC3=C2C(=O)CCC3)c([N+](=O)[O-])cc1OC (stereo not drawn) | inconclusive: -34.4%
CCN(CC)c1ncnc2c1ncn2[C@H]1CN(Cc2cccnc2)C[C@@H](CO)O1 | inactive: 10.1%
O=C(CCc1nc2ccccc2c(=O)[nH]1)OCC(=O)c1cccc(Cl)c1 | inconclusive: -31.6%
O=C(c1ccc([N+](=O)[O-])s1)N1CCN(c2cccc(Cl)c2)CC1 | inactive: -1.8%
CN(C)c1ccc(C=c2c3ccccc3n3c2cc(-c2ccc(Cl)cc2)[n+]3C)cc1 | inactive: -19.1%
CC(=O)OCCCN(C)CC/C=C1/c2ccccc2CSc2ccccc21 | inconclusive: -31.3%
Cc1cc2nc(N3C(=O)CNC3=S)sc2cc1C | active: -66.9%
O=C(CN1CCc2ccccc2C1)Nc1ccccc1Cl | inconclusive: -31.7%
C=CCOc1ccccc1CNCCCN1CCOCC1 | active: -59.1%
NC(=O)C(c1ncc(C(F)(F)F)cc1Cl)c1c(Cl)cccc1Cl (stereo not drawn) | inactive: -16.9%
CC1CCCN(CCOCCSc2ccccc2)C1 (stereo not drawn) | active: -72.6%
Cc1[nH]c2ccc(C(=O)N3CCN(Cc4ccccc4)CC3)cc2c1C | inconclusive: -40%
CC(=O)c1sc(NC(=O)Cc2c(F)cccc2Cl)nc1C | inactive: -7.33%
CC1CCN(CCNC(=S)Nc2ccc(Cl)cc2)CC1 | inconclusive: -48%
CCOC(=O)CSc1nnc(CNC(=O)c2cccc(C)c2)n1C | inconclusive: -30.9%
COc1ccc(NC(=O)CN2C(=O)NC(c3ccccc3)(c3ccccc3)C2=O)cc1 | inactive: 0%
CCc1nc2c(OCCn3cccc3)cccn2c1N(C)C(=O)c1ccc(C)cc1 | inactive: 0%
CNC(=S)N/N=C/c1cc(C)n(-c2ccc(Cl)c(Cl)c2)c1C | inconclusive: -33.8%
COc1ccc(NS(=O)(=O)c2ccc(C(=O)N(C)Cc3ccc(C)o3)cc2)cc1 | inactive: 7.46%
CCOC(=O)C1(Cc2cccc(Cl)c2)CCCN(C(=O)c2cc(C)on2)C1 (stereo not drawn) | inconclusive: -39.3%

Structure (SMILES) | max response, negative = inhibition
CNC(=O)N(O)C1N(/N=C/c2ccc(N(C)C)cc2)C(=S)SC1(C)C (stereo not drawn) | inactive: -23.5%
CCCC(=O)Nc1ccc(-c2cn3cccnc3n2)cc1 | inactive: 1.43%
CNC(=S)N=Nc1c(O)[nH]c2ccccc12 | inconclusive: -40%
[O-]/[N+](=C/c1ccccc1)c1ccccc1 | inconclusive: -39.4%
C=CCc1ccc(OCCCOc2ccc(C(=O)O)cc2)c(OC)c1 | inactive: -9.02%
COc1ccc(C(CNC(=O)c2oc3cc(C)c(C)cc3c2C)N2CCCCC2)cc1 (stereo not drawn) | inconclusive: -41.3%
Cc1ccc2sc(N(CCCN(C)C)C(=O)c3ccc(Br)s3)nc2c1C | inconclusive: -45.7%
CC(C)Nc1nc(Cl)nc(N(C#N)CN2C(=O)c3ccccc3C2=O)n1 | inconclusive: -45.5%
Cc1ccc(-c2c[n+](CC(=O)c3ccc(Br)cc3)c3n2CCCCC3)cc1 | inconclusive: -41.5%
O=C1C=C(c2ccc(OC(F)(F)F)cc2)C[C@@H](c2ccc(Cl)cc2)C1 | inconclusive: -38.2%
Cc1ccc(S(=O)(=O)N2CCC(=O)N(C(COC(=O)Nc3ccccc3)Cc3ccccc3)CC2)cc1 (stereo not drawn) | inactive: 9.95%
NC(=O)CSc1nnnn1-c1ccccc1Cl | inconclusive: -30.8%
O=[N+]([O-])c1ccc(OCCCCN2CCCCC2)cc1 | active: -57.7%
Cc1ccc(NC(=O)NCCN2CCN(c3ccccc3)CC2)cc1Cl | active: -71%
CC(C)C[C@H]1CNC(=O)C(=O)N1CC1CCN(CCC(C)c2ccccc2)CC1 (stereo partly drawn) | inconclusive: -49.7%
CCOC(=O)C1(C)/C(=N/Nc2ccc(Cl)cc2)C(=O)C(=O)N1c1ccccc1 (stereo not drawn) | inconclusive: -42.5%
Cc1cc(C)cc(NC(=O)CSc2ccc(-c3cccs3)nn2)c1 | inactive: 14.8%
O=[N+]([O-])c1ccccc1NCCNS(=O)(=O)c1ccc(Cl)cc1 | inactive: -26.3%
Nc1nc(CN2CCN(C(c3ccccc3)c3ccccc3)CC2)nc(Nc2ccccc2)n1 | inactive: -29.7%
COc1ccc(NC(=O)CN(C)C2CCS(=O)(=O)C2)cc1 (stereo not drawn) | inconclusive: -39.6%
COc1ccc(NC(=O)CN(C)C(=O)C2=COCCO2)cc1 | active: -58.8%
Cn1c(SCC(=O)Nc2nc(C(C)(C)C)cs2)nnc1C1CC1 | inactive: -23.9%

Structure (SMILES) | max response, negative = inhibition
CCOC(=O)c1[nH]c2ccc(Br)cc2c1NC(=O)CCN1CCC(C)CC1 | inconclusive: -30.1%
CC1(OC(=O)CCc2ccccc2)C(=O)C=C2C=C(c3ccc(C#N)cc3)N(c3ccccc3)C=C2C1=O (stereo not drawn) | inactive: 0%
CC(=O)N1CCC(N(C(=O)Nc2ccc(C)c(C)c2)C2CCCC2)CC1 | inactive: 33.8%
COC(=O)c1ccccc1N1C(=O)[C@@H]2C(c3ccc(F)cc3)=NO[C@@H]2C1=O | inconclusive: -33%
CCCCN(CCCC)S(=O)(=O)c1ccc(NS(=O)(=O)c2ccc(NC(C)=O)cc2)cc1 | inactive: -4.93%
C=CCN1CCN(C(=O)c2cc3c(s2)CCC(CC)C3)CC1 (stereo not drawn) | active: -91%
CC(C)(C)C(=O)NCCN1CCN(C(=O)C(C)(C)C)CC1 | inconclusive: -32.9%
CS(=O)(=O)c1ncc(Cl)c(C(=O)Nc2ccc3ccccc3c2)n1 | active: -117%
O=C(CCCN1CCOC(c2ccccc2)C1)c1ccc(F)cc1 (stereo not drawn) | active: -85.8%
O=c1oc2ccccc2c(Nc2cccc3ccccc23)c1[N+](=O)[O-] | active: -62.7%
COc1ccc(/C=N/NC(=O)c2cccc([N+](=O)[O-])c2)cc1OS(=O)(=O)c1ccc(C)cc1 | inconclusive: -39.2%
COc1ccc(N2Cc3ccccc3C2=O)cc1 | inactive: -8.08%
COc1ccc2c(c1)-c1c(ssc1=S)C(C)(C)N2 | inconclusive: -34.8%
Cc1c(C(=O)NCc2ccc3c(c2)OCO3)oc2ccc(S(=O)(=O)N3CCC(C)CC3)cc12 | inactive: 7.18%
Cc1ccccc1NC(=O)c1ccccc1NS(=O)(=O)c1cccc2cccnc12 | inconclusive: -35.9%
C/C(=N/OCO/N=C(\C)c1ccccc1)c1ccccc1 | inconclusive: -30.9%
NCCNc1ccc(C(=O)N2c3ccccc3Sc3ccccc32)cc1[N+](=O)[O-] | inconclusive: -39.8%
Cc1ccc(NC(=O)CNCc2ccccc2)cc1Br | inconclusive: -36.9%
Cc1ccc(NC(=O)C[n+]2ccccc2)cc1C | inconclusive: -37%
COc1ccc(/C=C2\OC(=O)c3c(OC)cccc32)cc1OC | inactive: 24.7%
O=C(c1ccc(Cl)cc1)C1CCCN(Cc2ccc(Oc3ncccn3)cc2)C1 (stereo not drawn) | inconclusive: -32.9%
O=C(NCc1ccccn1)c1ccc(Cl)c(S(=O)(=O)N2CCOCC2)c1 | inactive: 12.1%

By substructure, the entries above with a CF3 group (4)
Structure (SMILES) | max response, negative = inhibition
COc1ccc(CN2CCC[C@]3(N[C@H](c4ccc(C(F)(F)F)cc4)[C@@H]4C(=O)N(C)C(=O)[C@@H]43)C2=O)cc1 | inconclusive: -47.3%
FC(F)(F)c1cccc(OCCOCCn2cncn2)c1 | inconclusive: -35.1%
NC(=O)C(c1ncc(C(F)(F)F)cc1Cl)c1c(Cl)cccc1Cl (stereo not drawn) | inactive: -16.9%
O=C1C=C(c2ccc(OC(F)(F)F)cc2)C[C@@H](c2ccc(Cl)cc2)C1 | inconclusive: -38.2%
